Source: article PMC6904616
Results are given in words; binding and its absence hold for the method and conditions named. Binding seen in cells or lysates may run through a third protein. Some results given as binding are weak or reduced against the parent protein; the word gives no strength.

Sequences of proteins named here, by UniProt entry; tags and fusion partners are left off.
UniProt P09936: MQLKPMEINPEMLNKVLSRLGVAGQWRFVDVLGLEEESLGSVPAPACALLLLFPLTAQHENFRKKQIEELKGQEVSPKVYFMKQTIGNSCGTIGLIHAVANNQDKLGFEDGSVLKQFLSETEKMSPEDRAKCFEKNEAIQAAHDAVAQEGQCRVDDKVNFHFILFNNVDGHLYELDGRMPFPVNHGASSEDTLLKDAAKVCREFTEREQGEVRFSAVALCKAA
UniProt P60842: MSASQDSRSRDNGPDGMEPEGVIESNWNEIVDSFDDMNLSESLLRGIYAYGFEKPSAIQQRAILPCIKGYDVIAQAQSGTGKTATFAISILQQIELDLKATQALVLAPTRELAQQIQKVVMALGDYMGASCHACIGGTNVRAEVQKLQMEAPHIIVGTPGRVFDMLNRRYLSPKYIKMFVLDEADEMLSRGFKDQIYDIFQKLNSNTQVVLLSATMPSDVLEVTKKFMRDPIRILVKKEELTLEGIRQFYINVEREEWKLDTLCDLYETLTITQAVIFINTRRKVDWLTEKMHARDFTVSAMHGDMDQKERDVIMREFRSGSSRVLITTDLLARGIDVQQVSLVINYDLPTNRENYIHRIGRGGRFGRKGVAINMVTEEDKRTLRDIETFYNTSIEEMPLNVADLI

Key:
BioID2-UCHL1 (wild type) = BioID2-UCHL1 (wild type) (UniProt P09936); experiment: co-IP; immunoprecipitation from KMS11 lysates (0.5% NP40) of BioID2-UCHL1 fusions or C-terminal HA-tagged UCH-L1, blots probed for eIF4A
[1] = molecular target: UCH-L1 wild type with C-terminal HA tag (UniProt P09936); experiment: as above

Substance: eIF4A (eIF4F complex subunit) (from UniProt P60842 1-406)
- binding (BioID2-UCHL1 (wild type)): binds
- binding [1]: binds
